Article PMC11438860
Weaker means in comparison with the reference protein, sequence or condition of that experiment.

The chains behind the UniProt entries cited, without tags or fusion partners. Residues count along the entry.
UniProt O15527, 1-326: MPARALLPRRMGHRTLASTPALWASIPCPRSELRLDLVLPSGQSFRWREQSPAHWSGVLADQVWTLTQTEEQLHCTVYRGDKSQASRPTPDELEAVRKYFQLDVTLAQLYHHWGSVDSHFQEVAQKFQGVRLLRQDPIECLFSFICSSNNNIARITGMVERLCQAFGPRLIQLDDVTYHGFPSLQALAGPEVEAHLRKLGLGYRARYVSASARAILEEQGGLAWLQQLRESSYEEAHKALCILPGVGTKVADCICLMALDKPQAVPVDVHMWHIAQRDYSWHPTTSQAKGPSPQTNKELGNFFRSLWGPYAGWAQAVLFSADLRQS

Biological target: OGG1-dCT del327-345 (human) (UniProt O15527)
Assay: EMSA
Conditions: 2.5 uM DNA, only a portion shifted even at 20 uM protein, 8-oxo-dG at position 18 of strand 1 (text numbers it 17), within unmethylated Cp-8-oxoG, EMSA: 40 mM HEPES pH 7.4, 50 mM NaCl, 5 mM bME, 5% glycerol, 30 min on ice, 4-20% native gel, cryo-EM OGG1-DNA assembly: 20 mM HEPES pH 7.4, 100 mM NaCl, recombinant protein, residues 1-326

“ATGCCTCGCAGAATCCCGCTGCCGAGGCCGCTCAA (double strand) [35-bp 8-oxoG DNA]”: binds more weakly.
